Results as given in patent publication US20230357339A1, “Development of Cell-Permeable Truncated SOCS3 SH2 Domain (CP-SD) Recombinant Protein for Anti-Obesity Agent” (Cellivery Therapeutics, Inc., priority 2020, published 2023).
Not every detail of the peptide structures is certain; ends, links or a residue may be inferred. Where no end group is shown, it is not given here. The star is where a group is joined. FITC = O=C1OC2(c3ccc(O)cc3Oc3cc(O)ccc32)c2ccc(NC(=S)*)cc21

Test system: RAW 264.7 cells
Assay: Cell-permeability of FITC-labeled protein by flow cytometry and confocal microscopy
Assay type: cell-based
Conditions: 20 μM, 3 hours

Substance: AVALIVVPALAPEAAAKLIRDSSDQRHFFTLSVK(FITC)TQSGTKNLRIQ [FITC-aMTD524-P2-1]
- fluorescence intensity of treated cells compared to FITC-SH2 (L69-Q96) and unconjugated FITC (confocal microscopy): strong
- cell permeability relative to FITC-labeled SH2 (L69-Q96) (flow cytometry, serum free DMEM): 100.8 times
